Results from article PMC10284794.
These are yes or no findings as the source states them, for the method shown. Binding seen in cells or lysates may run through a third protein. These calls come from enrichment with a bait or labelling near it, and not all partners need be listed.

T1: RNF128, RING finger protein 128 (mouse (endogenous in lung tissue)) (UniProt Q9D304)
T1 sequence: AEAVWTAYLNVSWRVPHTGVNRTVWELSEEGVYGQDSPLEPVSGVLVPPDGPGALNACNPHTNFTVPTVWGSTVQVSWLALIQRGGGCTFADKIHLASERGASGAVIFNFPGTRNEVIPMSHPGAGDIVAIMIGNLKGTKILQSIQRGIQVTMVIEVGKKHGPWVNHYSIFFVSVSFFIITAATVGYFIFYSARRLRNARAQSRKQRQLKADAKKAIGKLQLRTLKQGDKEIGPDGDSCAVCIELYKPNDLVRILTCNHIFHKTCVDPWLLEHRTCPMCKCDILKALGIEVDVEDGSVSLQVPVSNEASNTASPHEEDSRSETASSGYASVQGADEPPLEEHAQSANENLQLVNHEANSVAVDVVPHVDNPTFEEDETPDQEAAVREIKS

B1: Splicing factor, proline- and glutamine-rich (protein, UniProt Q8VIJ6 1-699)
chain: MSRDRFRSRGGGGGGFHRRGGGGGRGGLHDFRSPPPGMGLNQNRGPMGPGPGGPKPPLPPPPPHQQQQQPPPQQPPPQQPPPHQQPPPHQPPHQQPPPPPQESKPVVPQGPGSAPGVSSAPPPAVSAPPANPPTTGAPPGPGPTPTPPPAVPSTAPGPPPPSTPSSGVSTTPPQTGGPPPPPAGGAGPGPKPGPGPGGPKGGKMPGGPKPGGGPGMGAPGGHPKPPHRGGGEPRGGRQHHAPYHQQHHQGPPPGGPGPRTEEKISDSEGFKANLSLLRRPGEKTYTQRCRLFVGNLPADITEDEFKRLFAKYGEPGEVFINKGKGFGFIKLESRALAEIAKAELDDTPMRGRQLRVRFATHAAALSVRNLSPYVSNELLEEAFSQFGPIERAVVIVDDRGRSTGKGIVEFASKPAARKAFERCSEGVFLLTTTPRPVIVEPLEQLDDEDGLPEKLAQKNPMYQKERETPPRFAQHGTFEYEYSQRWKSLDEMEKQQREQVEKNMKDAKDKLESEMEDAYHEHQANLLRQDLMRRQEELRRMEELHSQEMQKRKEMQLRQEEERRRREEEMMIRQREMEEQMRRQREESYSRMGYMDPRERDMRMGGGGTMNMGDPYGSGGQKFPPLGGGGGIGYEANPGVPPATMSGSMMGSDMRTERFGQGGAGPVGGQGPRGMGPGTPAGYGRGREEYEGPNKKPRF
B2: Destrin (protein, UniProt Q9R0P5 1-165)
chain: MASGVQVADEVCRIFYDMKVRKCSTPEEIKKRKKAVIFCLSADKKCIVVEEGKEILVGDVGATITDPFKHFVGMLPEKDCRYALYDASFETKESRKEELMFFLWAPEQAPLKSKMIYASSKDAIKKKFPGIKHEYQANGPEDLNRTCIAEKLGGSLIVAFEGSPV
B3: Pulmonary surfactant-associated protein D (protein, UniProt P50404 20-374)
chain: AEMKSLSQRSVPNTCTLVMCSPTENGLPGRDGRDGREGPRGEKGDPGLPGPMGLSGLQGPTGPVGPKGENGSAGEPGPKGERGLSGPPGLPGIPGPAGKEGPSGKQGNIGPQGKPGPKGEAGPKGEVGAPGMQGSTGAKGSTGPKGERGAPGVQGAPGNAGAAGPAGPAGPQGAPGSRGPPGLKGDRGVPGDRGIKGESGLPDSAALRQQMEALKGKLQRLEVAFSHYQKAALFPDGRSVGDKIFRTADSEKPFEDAQEMCKQAGGQLASPRSATENAAIQQLITAHNKAAFLSMTDVGTEGKFTYPTGEPLVYSNWAPGEPNNNGGAENCVEIFTNGQWNDKACGEQRLVICEF
B4: Glycogen phosphorylase, liver form (protein, UniProt Q9ET01 1-850)
chain: MAKPLTDQEKRRQISIRGIVGVENVAELKKGFNRHLHFTLVKDRNVATPRDYYFALAHTVRDHLVGRWIRTQQHYYDKCPKRVYYLSLEFYMGRTLQNTMINLGLQNACDEAIYQLGLDMEELEEIEEDAGLGNGGLGRLAACFLDSMATLGLAAYGYGIRYEYGIFNQKIREGWQVEEADDWLRHGNPWEKARPEFMLPVHFYGRVEHTQTGTKWVDTQVVLALPYDTPVPGYMNNTVNTMRLWSARAPNDFNLQDFNVGDYIQAVLDRNLAENISRVLYPNDNFFEGKELRLKQEYFVVAATLQDVIRRFKASKFGSKDGMGTVFDAFPDQVAIQLNDTHPALAIPELMRIFVDIEKLPWAKAWEITKKTFAYTNHTVLPEALERWPVELVEKLLPRHLEIIYEINQKHLDRIVALFPKDISRMRRMSLIEEEGGKRINMAHLCIVGCHAVNGVAKIHSDIVKTQVFKDFSELEPDKFQNKTNGITPRRWLLLCNPGLADLIAEKIGEDYVKDLSQLTKLHSFVSDDIFLREIAKVKQENKLKFSQFLEKEYKVKINPSSMFDVHVKRIHEYKRQLLNCLHVITMYNRIKKDPKKFFVPRTVIIGGKAAPGYHMAKMIIKLITSVAEVVNNDPMVGSKLKVIFLENYRVSLAEKVIPATDLSEQISTAGTEASGTGNMKFMLNGALTIGTMDGANVEMAEEAGEENLFIFGMRVDDVAALDKKGYEAKEYYEALPELKLVIDQIDNGFFSPNQPDLFKDIINMLFYHDRFKVFADYEAYVKCQEKVSQLYMNQKAWNTMVLKNIAASGKFSSDRTIKEYAKDIWNMEPSDLKISLSNESSNGVSANGK
B5: ADP/ATP translocase 1 (protein, UniProt P48962 1-298)
chain: MGDQALSFLKDFLAGGIAAAVSKTAVAPIERVKLLLQVQHASKQISAEKQYKGIIDCVVRIPKEQGFLSFWRGNLANVIRYFPTQALNFAFKDKYKQIFLGGVDRHKQFWRYFAGNLASGGAAGATSLCFVYPLDFARTRLAADVGKGSSQREFNGLGDCLTKIFKSDGLKGLYQGFSVSVQGIIIYRAAYFGVYDTAKGMLPDPKNVHIIVSWMIAQSVTAVAGLVSYPFDTVRRRMMMQSGRKGADIMYTGTLDCWRKIAKDEGANAFFKGAWSNVLRGMGGAFVLVLYDEIKKYV
B6: Non-POU domain-containing octamer-binding protein (protein, UniProt Q99K48 1-473)
chain: MQSNKAFNLEKQNHTPRKHHQHHHQQHHQQQQQQQQQQPPPPIPANGQQASSQNEGLTIDLKNFRKPGEKTFTQRSRLFVGNLPPDITEEEMRKLFEKYGKAGEVFIHKDKGFGFIRLETRTLAEIAKVELDNMPLRGKQLRVRFACHSASLTVRNLPQYVSNELLEEAFSVFGQVERAVVIVDDRGRPSGKGIVEFSGKPAARKALDRCSEGSFLLTTFPRPVTVEPMDQLDDEEGLPEKLVIKNQQFHKEREQPPRFAQPGSFEYEYAMRWKALIEMEKQQQDQVDRNIKEAREKLEMEMEAARHEHQVMLMRQDLMRRQEELRRMEELHNQEVQKRKQLELRQEEERRRREEEMRRQQEEMMRRQQEGFKGTFPDAREQEIRMGQMAMGGAMGINNRGAMPPAPVPPGTPAPPGPATMMPDGTLGLTPPTTERFGQAATMEGIGAIGGTPPAFNRPAPGAEFAPNKRRRY

What follows are binders tested against T1, RNF128, RING finger protein 128 (mouse (endogenous in lung tissue)) (assay: affinity purification with mass spectrometry; whole lung tissue lysates from WT and WT-LPS mice immunoprecipitated using the RNF128 antibody; trypsin digest, LC-MS/MS; hits at least 2-fold more abundant in WT-LPS than in WT).

binding, binds:
B1
B2
B3
B4
B5
B6
